Data on two molecules can be found in PMC8414963.

The chains behind the UniProt entries cited, without tags or fusion partners.
UniProt P63208: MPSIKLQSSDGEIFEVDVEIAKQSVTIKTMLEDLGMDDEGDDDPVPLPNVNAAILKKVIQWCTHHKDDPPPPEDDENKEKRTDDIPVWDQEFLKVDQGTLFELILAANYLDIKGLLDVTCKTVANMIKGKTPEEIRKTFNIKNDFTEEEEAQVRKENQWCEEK

No constants are given. Whether binding was seen depends on the method and setting. Binding seen in cells or lysates may run through a third protein. Some entries that bind do so weakly or less than the wild type.

The experiment addresses T1, protein arginine N-methyltransferase 4/coactivator-associated arginine methyltransferase 1 (PRMT4/CARM1) (UniProt Q86X55).
T1 sequence: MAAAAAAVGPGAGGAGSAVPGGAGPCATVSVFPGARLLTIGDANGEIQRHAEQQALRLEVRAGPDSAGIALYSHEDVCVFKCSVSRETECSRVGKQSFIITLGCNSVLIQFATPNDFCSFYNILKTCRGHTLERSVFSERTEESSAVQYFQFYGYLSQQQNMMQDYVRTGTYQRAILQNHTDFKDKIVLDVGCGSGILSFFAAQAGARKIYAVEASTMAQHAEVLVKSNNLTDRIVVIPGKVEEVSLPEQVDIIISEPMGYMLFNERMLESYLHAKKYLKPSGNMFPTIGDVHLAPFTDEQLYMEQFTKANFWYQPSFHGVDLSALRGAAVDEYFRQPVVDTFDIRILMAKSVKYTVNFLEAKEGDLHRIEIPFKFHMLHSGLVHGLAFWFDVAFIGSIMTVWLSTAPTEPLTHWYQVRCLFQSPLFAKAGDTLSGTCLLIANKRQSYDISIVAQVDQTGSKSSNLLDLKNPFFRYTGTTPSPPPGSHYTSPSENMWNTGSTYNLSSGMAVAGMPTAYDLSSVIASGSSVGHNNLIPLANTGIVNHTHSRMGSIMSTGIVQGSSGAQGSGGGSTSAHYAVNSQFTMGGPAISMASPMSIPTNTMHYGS
Description: co-IP; 1 mg of cell lysate in PBS with 0.5% Tween 20 plus protease inhibitors, primary antibody 2 h at room temperature, protein A/G agarose beads 2 h, immunoblotting; cells and precipitating antibody not told. A general note: Immunoblotting shows a protein as a band on a membrane.

Turning to Skp1 (from UniProt P63208 1-163), the binding result is given as “binds”.

B1: F-box protein FBXO9 (protein, UniProt Q9UK97 1-447)
chain: MPDIIWVFPPQAEAEEDCHSDTVRADDDEENESPAETDLQAQLQMFRAQWMFELAPGVSSSNLENRPCRAARGSLQKTSADTKGKQEQAKEEKARELFLKAVEEEQNGALYEAIKFYRRAMQLVPDIEFKITYTRSPDGDGVGNSYIEDNDDDSKMADLLSYFQQQLTFQESVLKLCQPELESSQIHISVLPMEVLMYIFRWVVSSDLDLRSLEQLSLVCRGFYICARDPEIWRLACLKVWGRSCIKLVPYTSWREMFLERPRVRFDGVYISKTTYIRQGEQSLDGFYRAWHQVEYYRYIRFFPDGHVMMLTTPEEPQSIVPRLRTRNTRTDAILLGHYRLSQDTDNQTKVFAVITKKKEEKPLDYKYRYFRRVPVQEADQSFHVGLQLCSSGHQRFNKLIWIHHSCHITYKSTGETAVSAFEIDKMYTPLFFARVRSYTAFSERPL
On to B1, for which the binding result is “binds”.
